Laboratory results: patent publication US8158606B2, “β-L-2′-deoxynucleosides for the treatment of resistant HBV strains and combination therapies” (priority 2002, dated 2012)
For some of these results: At least one compound was matched to its structure with a doubt left. Some results were stated once for a whole list of compounds, not compound by compound.

Key:
human DNA polymerase α = target: T1, human DNA polymerase α (Homo sapiens, UniProt P09884); assay: Inhibition of human DNA polymerases; assay type: biochemical; conditions: 100 μM was the highest concentration tested
T1 sequence (P09884 1-1462): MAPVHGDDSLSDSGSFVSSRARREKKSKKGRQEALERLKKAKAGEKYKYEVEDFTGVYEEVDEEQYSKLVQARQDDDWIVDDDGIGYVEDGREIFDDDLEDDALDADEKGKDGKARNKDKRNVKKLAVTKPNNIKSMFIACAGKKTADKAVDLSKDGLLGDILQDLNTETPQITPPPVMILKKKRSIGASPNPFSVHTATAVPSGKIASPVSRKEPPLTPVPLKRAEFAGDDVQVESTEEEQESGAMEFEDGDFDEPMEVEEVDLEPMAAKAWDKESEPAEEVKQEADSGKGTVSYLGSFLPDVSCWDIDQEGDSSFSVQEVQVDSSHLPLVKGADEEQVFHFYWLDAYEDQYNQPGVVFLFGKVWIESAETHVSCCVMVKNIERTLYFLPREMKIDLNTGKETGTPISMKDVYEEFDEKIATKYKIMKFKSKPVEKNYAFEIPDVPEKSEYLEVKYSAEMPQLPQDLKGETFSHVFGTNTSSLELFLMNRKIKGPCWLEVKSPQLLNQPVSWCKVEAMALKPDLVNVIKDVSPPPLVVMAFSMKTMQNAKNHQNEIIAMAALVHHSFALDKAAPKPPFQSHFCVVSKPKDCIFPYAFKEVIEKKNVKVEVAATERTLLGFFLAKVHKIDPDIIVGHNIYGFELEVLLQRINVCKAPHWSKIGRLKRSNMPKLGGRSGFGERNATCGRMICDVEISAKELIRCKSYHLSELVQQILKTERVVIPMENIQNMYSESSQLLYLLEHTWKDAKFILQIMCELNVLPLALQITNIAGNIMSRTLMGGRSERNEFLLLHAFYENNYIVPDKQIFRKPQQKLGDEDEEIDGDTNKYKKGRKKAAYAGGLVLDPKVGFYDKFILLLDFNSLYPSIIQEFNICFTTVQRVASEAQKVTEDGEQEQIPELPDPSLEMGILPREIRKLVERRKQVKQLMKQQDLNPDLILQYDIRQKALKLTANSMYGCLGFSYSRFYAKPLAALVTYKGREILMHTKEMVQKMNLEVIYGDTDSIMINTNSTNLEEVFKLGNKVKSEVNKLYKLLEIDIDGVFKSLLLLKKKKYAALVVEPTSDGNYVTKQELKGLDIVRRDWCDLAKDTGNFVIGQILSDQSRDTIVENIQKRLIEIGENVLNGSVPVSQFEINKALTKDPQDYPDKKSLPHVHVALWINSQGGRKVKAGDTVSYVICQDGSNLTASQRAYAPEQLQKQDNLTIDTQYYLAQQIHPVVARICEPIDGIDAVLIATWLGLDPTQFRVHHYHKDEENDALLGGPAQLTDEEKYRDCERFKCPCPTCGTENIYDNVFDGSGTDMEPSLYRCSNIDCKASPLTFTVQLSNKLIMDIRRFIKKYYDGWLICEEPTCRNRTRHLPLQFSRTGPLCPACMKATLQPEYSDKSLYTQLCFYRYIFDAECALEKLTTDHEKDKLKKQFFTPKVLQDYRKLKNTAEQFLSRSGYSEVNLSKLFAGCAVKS

human DNA polymerase γ = target: T2, human DNA polymerase γ (Homo sapiens, UniProt P54098); assay: Inhibition of human DNA polymerases; assay type: biochemical; conditions: 100 μM was the highest concentration tested
T2 sequence (P54098 1-1239): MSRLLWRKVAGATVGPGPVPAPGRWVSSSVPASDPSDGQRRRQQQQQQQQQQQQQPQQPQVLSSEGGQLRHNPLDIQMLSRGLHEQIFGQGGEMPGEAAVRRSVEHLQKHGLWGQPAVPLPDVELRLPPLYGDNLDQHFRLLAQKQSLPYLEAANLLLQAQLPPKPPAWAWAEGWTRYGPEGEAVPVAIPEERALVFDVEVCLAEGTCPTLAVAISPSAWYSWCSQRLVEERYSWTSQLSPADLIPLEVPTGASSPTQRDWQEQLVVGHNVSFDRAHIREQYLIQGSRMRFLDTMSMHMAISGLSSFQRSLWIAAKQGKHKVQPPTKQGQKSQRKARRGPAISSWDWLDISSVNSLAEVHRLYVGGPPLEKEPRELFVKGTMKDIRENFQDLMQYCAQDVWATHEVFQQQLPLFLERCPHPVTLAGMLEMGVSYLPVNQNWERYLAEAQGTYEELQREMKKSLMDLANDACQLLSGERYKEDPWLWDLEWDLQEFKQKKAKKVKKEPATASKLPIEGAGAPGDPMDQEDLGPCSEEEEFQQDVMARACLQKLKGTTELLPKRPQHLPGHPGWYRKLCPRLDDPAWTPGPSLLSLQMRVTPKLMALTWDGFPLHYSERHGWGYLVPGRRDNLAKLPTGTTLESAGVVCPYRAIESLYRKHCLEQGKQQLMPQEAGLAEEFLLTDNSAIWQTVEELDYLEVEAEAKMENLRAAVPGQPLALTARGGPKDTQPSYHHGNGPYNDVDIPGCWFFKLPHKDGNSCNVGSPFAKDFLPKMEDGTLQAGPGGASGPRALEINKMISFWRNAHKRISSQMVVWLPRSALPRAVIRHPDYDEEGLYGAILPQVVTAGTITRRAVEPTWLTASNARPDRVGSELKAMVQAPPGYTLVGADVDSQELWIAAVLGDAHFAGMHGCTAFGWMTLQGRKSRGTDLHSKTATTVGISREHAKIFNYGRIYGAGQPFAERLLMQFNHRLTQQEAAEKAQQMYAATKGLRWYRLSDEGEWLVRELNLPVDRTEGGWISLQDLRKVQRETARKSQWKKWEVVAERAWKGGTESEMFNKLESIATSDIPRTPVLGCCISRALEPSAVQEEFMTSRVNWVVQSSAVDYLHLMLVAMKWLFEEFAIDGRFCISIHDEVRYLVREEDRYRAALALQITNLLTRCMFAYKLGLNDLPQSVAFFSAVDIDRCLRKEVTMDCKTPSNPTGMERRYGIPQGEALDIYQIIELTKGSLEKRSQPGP

human DNA polymerase β = human DNA polymerase β (Homo sapiens, UniProt P06746); assay: Inhibition of human DNA polymerases; assay type: biochemical; conditions: 100 μM was the highest concentration tested
HBV = conditions: cited from earlier work
[1] = test system: L515M/M552V mutant HBV, cell line MV5/B3; assay: Antiviral testing in stable HepG2 cell lines, EPA of intracellular nucleocapsids; assay type: cell-based, hepatitis B virus; conditions: EC50 mutant divided by EC50 wild-type
Method: (§1) Recombinant DNA constructs corresponding to these lamivudine-resistant mutants were created by site directed mutagenesis. The test system comprised stable cell lines harboring each of the transfected mutant genomes, as well as a wild-type control HBV genome. The antiviral activity of LdT (telbivudine) and LdC, together with the control drugs lamivudine and PMEA, was determined against the mutant and wild-type HBV genomes in the respective test cell lines.
(§2) Endogenous Polymerase Assay (EPA) of cell lysate: Cells were grown in 12-well collagen plates to 100% confluency for 3-4 days and cytosolic lysates were prepared in 1 ml of 50 mM Tris-HCl pH 7.4, 150 mM NaCl, 5 mM MgCl2, 0.2% NP-40. EPAs were essentially performed as described (Seifer et al., 1998). […] The immobilized capsids were then washed, endogenous polymerase reactions were initiated in 50 ul reaction volume containing 50 mM Tris-HCl pH7.4, 75 mM NH4Cl, 1 mM EDTA, 20 mM MgCl2, 0.1 mM β-ME, 0.5% NP-40, 100 μM cold dGTP, TTP, dCTP, and 50 nM ^33P-dATP (Perkin Elmer Life Sciences Cat# NEG 612H), and incubated overnight at 37° C. Following digestion with 1 mg/ml of Proteinase K (Roche, Cat#1373196) for 1 h at 37° C., ^33P-labeled HBV DNA was liberated via phenol/chloroform extraction The nucleic acids were finally precipitated with equal volumes 5M NH4-acetate and 2.5 volumes 100% EtOH and separated on a 1% native agarose gel in Tris-borate buffer. Gels were either fixed with 7% TCA, then dried, or blotted onto positively charged nylon membrane (Pall Biodyne Plus Cat#60406) overnight at room temperature via capillary transfer in 0.4 N NaOH. Dried gels/membranes were exposed to a phosphoimager screen (Molecular Dynamics) overnight at room temperature, then scanned (Storm 860, Molecular Dynamics) and quantitated with ImageQuant (Molecular Dynamics) software.
(§3) 12-well Biocoat collagen I plates (Becton Dickinson Cat#35-4500) are seeded with cells at a density of 0.5-1×10^6 cells per well in 2 ml DMEM containing 5% FBS, 2 mM L-glutamine, 100 I.U. penicillin/100 μg/mL streptomycin, and 0.5 mg/mL G-418.
(§4) Drug dilutions are prepared freshly in 100% DMSO as 200× stocks. For each experiment, 4 aliquots of each drug dilution series are stored at −20° C. until used. Once cells reach confluency, drug treatment is initiated by adding 10 μL of drug dilution into 2 ml of fresh DMEM+5% FBS. […] The no-drug control well receives only 10 μl of DMSO. Cells are treated every other day with 2 mL of fresh drug/medium for a total of 8 days. Cell lysates are then collected on day 10 as described below:
(§5) Aspirate media and rinse cell monolayer carefully once with 1 mL of PBS.
(§6) Add 1 ml of lysis buffer (50 mM Tris-HCl pH 7.5/150 mM NaCl/5 mM MgCl2/0.2% NP-40). Store on ice for 30 min to 4 h.
(§7) Harvest lysed cells. Transfer to 1.5 ml microfuge tubes.
(§8) Clarify lysate by spinning for 5 min at RT and 14,000 rpm.
(§9) Transfer clarified lysate to fresh tubes. Snap-freeze on dry-ice and store at −80° C. until ready to continue with endogenous polymerase assays essentially as described above.
(§10) EC50's were generated from the phosphorimager data by curve fitting using Xlfit software.

[2] = test system: M552V mutant HBV, cell line V1/C9; assay: as above; assay type: cell-based, hepatitis B virus; conditions: for X Resist. (fold resistance): M552V, EC50 mutant divided by EC50 wild-type
Method: as §1, §2, §3, §4, §5, §6, §7, §8, §9, §10

[3] = test system: L515M/M552I mutant HBV, cell line MI4; assay: as above; assay type: cell-based, hepatitis B virus; conditions: EC50 mutant divided by EC50 wild-type
Method: as §1, §2, §3, §4, §5, §6, §7, §8, §9, §10

[4] = test system: wild-type HBV (ayw), cell line WT3/C1; assay: as above; assay type: cell-based, hepatitis B virus; conditions: WT (ayw); EC50 mutant divided by EC50 wild-type
Method: as §1, §2, §3, §4, §5, §6, §7, §8, §9, §10

[5] = test system: M552I mutant HBV, cell line I2; assay: as above; assay type: cell-based, hepatitis B virus; conditions: EC50 mutant divided by EC50 wild-type
Method: as §1, §2, §3, §4, §5, §6, §7, §8, §9, §10

[6] = test system: M552V mutant HBV, cell line V1/C9; conditions: cited from earlier work

O=c1ccn([C@@H]2C[C@@H](O)[C@H](COP(=O)(O)OP(=O)(O)OP(=O)(O)O)O2)c(=O)[nH]1 [L-dU-TP, β-L-2′-deoxyuridine 5′-triphosphate]
concentration up to which human DNA polymerase α was not inhibited (human DNA polymerase α): > 100 µM | concentration up to which human DNA polymerase γ was not inhibited (human DNA polymerase γ): > 100 µM | concentration up to which human DNA polymerase β was not inhibited (human DNA polymerase β): > 100 µM

Nc1ccn([C@@H]2CS[C@H](CO)O2)c(=O)n1 [lamivudine, (−)-enantiomer of BCH-189 (2′,3′-dideoxy-3′-thiacytidine)]
treated patients who develop viral resistance after 3 years of treatment (HBV; Leung et al. 2001): Approximately 50% | prevalence of YMDD-mutant HBV after two to three years of treatment (HBV; lamivudine 100 mg qd, HBV-infected patients): ≤ 58% | X Resist. (fold resistance) [1]: ≧22922 ± 9063 ^ | activity against the mutant, in words ([2]; M552V single mutant): significantly diminished | X Resist. (fold resistance) [2]: 24.8 | X Resist. (fold resistance) ([2]; listed as Lam): 24.8 ± 17.8 | X Resist. (fold resistance) [3]: ≧22922 ± 9063 ^ | X Resist. (fold resistance) [4]: 1 | X Resist. (fold resistance) [5]: ≧22922 ± 9063 ^ | fold resistance according to the Glaxo group (Allen et al, 1998) [6]: 153
